PubChem BioAssay AID504744 – Drosophila RNAi Screening Center, 2011
Aim: 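Find genes whose loss alters insulin-driven dAkt phosphorylation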 (primary screen). Cell system: Drosophila Kc167 cells. Knock-down reagent: long dsRNA against Drosophila genes, 250 ng dsRNA per well of a 384-well plate. Duration: 3 days of knock-down, then overnight serum-free starvation before stimulation. Challenge: bovine insulin at 387 nM for 10 minutes after 12 h without serum. Detection: 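Per-well phospho-dAkt level from an in-cell fluorescent antibody stain, divided by a DNA-dye signal; log2 residuals turned into z-scores that take cell number into account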. Hit rule: 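Hit in the insulin screen when the two-replicate mean z-score is more extreme than plus or minus 2.5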.
The screen tested about 23,000 reagents; this is an unselected part of those with a known target gene and a result. Over the whole deposit, 98 (0.43%) were called active. 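Only hit calls are given; the phospho-dAkt signals, z-scores and hit direction were not deposited.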 The numbers tell different reagents against one gene apart.

Which result is listed for Gr92a (GeneID 117473)?
call: inactive

For yellow-f (GeneID 41595), what was measured?
call: inactive

What did the screen give for pch2 (GeneID 41013)?
call: inactive

What is on record for Tfb4 (GeneID 33294)?
call: inactive

For CG14054 (GeneID 31172), how do the results read?
call: inactive

With CG6951 (GeneID 40222), what does the deposit list?
call: inactive

With GAPcenA (GeneID 38945), what was measured?
call: inactive

With CG6034 (GeneID 39974), what does the deposit list?
call: inactive

How did the screen score CG18095 (GeneID 34823)?
call: inactive

With CIAPIN1 (GeneID 49424), how do the results read?
call: inactive

Which result is listed for RpS4 (GeneID 39484)?
call: inactive

With Echs1 (GeneID 36536), what was measured?
call: inactive

With CR33317 (GeneID 8674083), what was measured?
call: inactive

Which result is listed for CG14195 (GeneID 32911)?
call: inactive

Laid out differently: entries from further up.
{"predicted target":"Gr92a (GeneID 117473)","dsRNA no.":1,"call":"inactive"}
{"predicted target":"yellow-f (GeneID 41595)","dsRNA no.":1,"call":"inactive"}
{"predicted target":"pch2 (GeneID 41013)","dsRNA no.":1,"call":"inactive"}

Further reagents follow.
For HDAC11 (GeneID 326120), what does the deposit list?
call: inactive

What did the screen give for Aldh (GeneID 34256)?
call: inactive

For sick (GeneID 35277) #1, what was measured?
call: inactive

For sick (GeneID 35277) #2, what was measured?
call: inactive

For sick (GeneID 35277) #3, what does the deposit list?
call: inactive

With sick (GeneID 35277) #4, what does the deposit list?
call: inactive

What did the screen give for sick (GeneID 35277) #5?
call: inactive

How did the screen score Art6 (GeneID 41699)?
call: inactive

What did the screen give for Jheh2 (GeneID 37181)?
call: inactive
